The results in this text go back to US8841254B2 (Howard Florey Institute of Experimental Physiology and …, priority 2001, dated 2014).

This data set is described as follows: general procedure: Fmoc solid-phase peptide synthesis in flow; Fmoc-PAL-PEG-PS (Applied Biosystems); DIC/HOBt (A-chain); HBTU/DIEA (B-chain). To be noted: late stage modification step.

“Human Relaxin H3, A-Chain [Cys^11(Acm), Cys^24(Pyr)](1-24) Amide” registered a step yield of 4%.
